{"source": "paper PMC9769526", "molecular_target": "T1, AtrR-TAP fusion protein (full-length AtrR fused at its C terminus to the tandem affinity purification moiety) (Aspergillus fumigatus) (UniProt Q4WI89)", "T1 sequence": "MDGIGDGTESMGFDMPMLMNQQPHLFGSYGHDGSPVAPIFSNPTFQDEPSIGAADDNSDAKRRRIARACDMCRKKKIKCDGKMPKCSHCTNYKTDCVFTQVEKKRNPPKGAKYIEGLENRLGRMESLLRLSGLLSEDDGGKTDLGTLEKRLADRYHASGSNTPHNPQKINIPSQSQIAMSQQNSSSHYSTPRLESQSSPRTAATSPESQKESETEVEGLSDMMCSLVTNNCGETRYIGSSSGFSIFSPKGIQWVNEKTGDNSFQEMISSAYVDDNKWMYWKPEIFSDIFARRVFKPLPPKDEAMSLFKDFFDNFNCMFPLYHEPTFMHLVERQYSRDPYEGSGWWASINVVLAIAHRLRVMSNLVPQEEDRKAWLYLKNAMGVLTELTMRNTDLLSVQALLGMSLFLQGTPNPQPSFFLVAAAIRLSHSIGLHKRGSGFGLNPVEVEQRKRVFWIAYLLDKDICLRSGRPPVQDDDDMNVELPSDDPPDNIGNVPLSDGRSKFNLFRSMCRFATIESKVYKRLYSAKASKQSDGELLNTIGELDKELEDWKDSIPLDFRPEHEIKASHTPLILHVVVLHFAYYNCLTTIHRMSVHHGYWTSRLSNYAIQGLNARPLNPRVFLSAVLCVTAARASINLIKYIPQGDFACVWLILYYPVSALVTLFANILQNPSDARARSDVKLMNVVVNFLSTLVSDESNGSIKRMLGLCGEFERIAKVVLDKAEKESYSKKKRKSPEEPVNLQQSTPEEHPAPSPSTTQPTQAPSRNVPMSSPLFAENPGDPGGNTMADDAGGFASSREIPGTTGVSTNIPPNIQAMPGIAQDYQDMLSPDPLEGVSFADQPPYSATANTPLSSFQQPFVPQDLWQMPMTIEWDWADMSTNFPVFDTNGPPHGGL", "assay": "affinity purification with mass spectrometry; tandem affinity purification of AtrR-TAP from native A. fumigatus extracts (B250 buffer, 250 mM NaCl, 0.1% NP-40; IgG-Sepharose, TEV cleavage, calmodulin-Sepharose, EGTA elution), copurifying proteins detected by MudPIT", "note": "No constants are given. Whether binding was seen depends on the method and setting. In cells and extracts the contact can be indirect. These calls come from enrichment with a bait or labelling near it, and not all partners need be listed. Sequences can lack the tags named with a protein.", "data": [{"binder": "NcaA (nuclear coactivator of AtrR) (protein, UniProt Q4WN10 1-575) MAETTPSRPNDTPENSPGGGDDNQSQSAGQSKNPASVKDRKCQYCHQAFTSSSLGRHLDQYLFKKKPDGVHDVEEIRRIRSGITRRQARTSSGKRDTPERAMGKGPSEHFAGGEYGAKPREGAIRMMFNTPTWHATGVINDIPNPGQTPEGSRFATSQSRTGVIHLPDYASRGASAKDPDTMRALELALREVLDNIKAATSRMRPRLSPFDFDIQSETFPSLCLRLLPPPPSLFSTNPFPSPSSFPLKPPGVEHLDIVRQAIRAKIDQWQSDQLSTQSANNSPGRPPLGLDANMISRSAQQHEDMSLRHLELAFKHWASLPPETRLEAWHLEITRAFAREVEKRKTLDEQLARVQQEANQLRAQVEKLGSCQWPREFALFPPDTLPLPPAVARELDAKESQISPGSPRWDYDSVVAKWKRVVMHDKSMGRVGVGYGNPPLDDRSSADTKARATEEPPASAALASTSTSAPPSAHPPPRALQPAPGPALAASPDQSSSHTGGASAPSSQNTSPYLRSPQAGPQAKRPRLMNGADGGHTSAANPSATAPNTWNPHSHQSLPGSNLASASGPPPSSGA", "values": [{"measurement": "binding", "result": "binds"}]}]}
